Measurements taken from the supplement of paper PMC12823440, “Inhibitors supercharge kinase turnover through native proteolytic circuits” (Nature, 2025).
Where a name gives a salt, the structure may show the parent alone. The list shows a part of the results. Hit calls seldom repeat between salt and free forms of one compound.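 Kinases were expressed as nanoluciferase fusions in K562 cells and luminescence was read every 4 h between 2 and 18 h as percent of control, DMSO set to 100% and a positive control to 0%. A time point counts as decreased when the signal drops significantly (2 sigma). The hit call is the authors' own, does not follow from the count of time points alone, and its rule is not shown.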

Sequences of proteins named here, by UniProt entry; tags and fusion partners are left off. A change or cut given only in a name is not applied to a line headed by its entry.
UniProt Q05397, whole entry, looked up: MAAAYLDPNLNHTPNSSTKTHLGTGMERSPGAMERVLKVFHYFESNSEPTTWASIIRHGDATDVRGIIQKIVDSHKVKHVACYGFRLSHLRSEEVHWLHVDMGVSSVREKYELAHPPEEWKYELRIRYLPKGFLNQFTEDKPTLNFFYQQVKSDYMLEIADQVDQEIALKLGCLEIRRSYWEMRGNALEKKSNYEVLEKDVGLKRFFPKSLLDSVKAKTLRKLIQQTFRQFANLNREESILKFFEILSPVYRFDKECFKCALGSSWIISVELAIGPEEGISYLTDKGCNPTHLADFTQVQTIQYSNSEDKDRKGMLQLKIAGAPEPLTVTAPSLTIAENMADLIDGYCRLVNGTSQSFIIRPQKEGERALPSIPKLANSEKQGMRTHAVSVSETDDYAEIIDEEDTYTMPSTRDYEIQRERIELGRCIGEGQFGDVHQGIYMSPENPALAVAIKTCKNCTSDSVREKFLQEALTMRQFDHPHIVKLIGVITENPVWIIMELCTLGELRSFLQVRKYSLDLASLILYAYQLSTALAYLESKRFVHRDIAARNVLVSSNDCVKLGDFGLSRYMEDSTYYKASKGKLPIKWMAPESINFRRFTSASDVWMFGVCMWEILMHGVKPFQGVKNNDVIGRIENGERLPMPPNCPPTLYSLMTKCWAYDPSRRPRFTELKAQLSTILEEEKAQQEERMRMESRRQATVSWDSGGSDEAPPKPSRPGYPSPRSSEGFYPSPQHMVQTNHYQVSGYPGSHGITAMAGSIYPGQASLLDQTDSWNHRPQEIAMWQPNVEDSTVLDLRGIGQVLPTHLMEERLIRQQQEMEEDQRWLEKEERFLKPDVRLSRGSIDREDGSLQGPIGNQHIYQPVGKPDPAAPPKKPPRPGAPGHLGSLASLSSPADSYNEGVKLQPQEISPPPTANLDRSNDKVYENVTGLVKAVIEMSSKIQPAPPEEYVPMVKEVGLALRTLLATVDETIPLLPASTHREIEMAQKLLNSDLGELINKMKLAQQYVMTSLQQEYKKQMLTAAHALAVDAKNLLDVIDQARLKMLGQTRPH
UniProt P07949, whole entry, looked up: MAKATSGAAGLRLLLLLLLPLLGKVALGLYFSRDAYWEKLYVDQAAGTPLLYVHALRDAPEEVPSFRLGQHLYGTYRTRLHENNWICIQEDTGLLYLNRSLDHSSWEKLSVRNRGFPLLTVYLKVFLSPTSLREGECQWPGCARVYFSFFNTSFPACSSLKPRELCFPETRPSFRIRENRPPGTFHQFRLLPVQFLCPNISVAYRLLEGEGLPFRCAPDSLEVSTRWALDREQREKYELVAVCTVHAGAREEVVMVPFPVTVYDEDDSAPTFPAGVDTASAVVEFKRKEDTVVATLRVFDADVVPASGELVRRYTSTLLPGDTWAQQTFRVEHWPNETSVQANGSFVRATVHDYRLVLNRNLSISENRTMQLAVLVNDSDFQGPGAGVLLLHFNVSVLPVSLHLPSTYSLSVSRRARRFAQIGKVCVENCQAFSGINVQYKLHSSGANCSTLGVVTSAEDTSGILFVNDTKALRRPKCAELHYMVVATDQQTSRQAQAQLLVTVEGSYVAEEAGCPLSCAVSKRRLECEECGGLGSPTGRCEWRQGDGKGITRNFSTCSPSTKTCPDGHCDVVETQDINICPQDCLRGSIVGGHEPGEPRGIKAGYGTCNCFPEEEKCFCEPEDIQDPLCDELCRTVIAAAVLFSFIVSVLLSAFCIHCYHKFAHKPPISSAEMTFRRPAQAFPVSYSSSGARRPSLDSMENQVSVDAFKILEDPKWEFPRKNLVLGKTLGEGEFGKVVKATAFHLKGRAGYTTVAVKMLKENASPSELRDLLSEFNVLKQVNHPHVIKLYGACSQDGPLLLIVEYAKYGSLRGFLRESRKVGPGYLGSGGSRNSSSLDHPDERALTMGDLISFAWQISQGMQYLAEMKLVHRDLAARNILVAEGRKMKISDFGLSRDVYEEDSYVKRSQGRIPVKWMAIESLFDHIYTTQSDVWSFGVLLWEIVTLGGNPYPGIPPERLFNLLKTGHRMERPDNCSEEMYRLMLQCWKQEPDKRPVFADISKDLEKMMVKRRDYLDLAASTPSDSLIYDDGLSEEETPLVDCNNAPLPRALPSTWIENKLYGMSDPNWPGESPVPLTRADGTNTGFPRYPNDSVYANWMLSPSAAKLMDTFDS
UniProt P07949, whole entry M918T, looked up: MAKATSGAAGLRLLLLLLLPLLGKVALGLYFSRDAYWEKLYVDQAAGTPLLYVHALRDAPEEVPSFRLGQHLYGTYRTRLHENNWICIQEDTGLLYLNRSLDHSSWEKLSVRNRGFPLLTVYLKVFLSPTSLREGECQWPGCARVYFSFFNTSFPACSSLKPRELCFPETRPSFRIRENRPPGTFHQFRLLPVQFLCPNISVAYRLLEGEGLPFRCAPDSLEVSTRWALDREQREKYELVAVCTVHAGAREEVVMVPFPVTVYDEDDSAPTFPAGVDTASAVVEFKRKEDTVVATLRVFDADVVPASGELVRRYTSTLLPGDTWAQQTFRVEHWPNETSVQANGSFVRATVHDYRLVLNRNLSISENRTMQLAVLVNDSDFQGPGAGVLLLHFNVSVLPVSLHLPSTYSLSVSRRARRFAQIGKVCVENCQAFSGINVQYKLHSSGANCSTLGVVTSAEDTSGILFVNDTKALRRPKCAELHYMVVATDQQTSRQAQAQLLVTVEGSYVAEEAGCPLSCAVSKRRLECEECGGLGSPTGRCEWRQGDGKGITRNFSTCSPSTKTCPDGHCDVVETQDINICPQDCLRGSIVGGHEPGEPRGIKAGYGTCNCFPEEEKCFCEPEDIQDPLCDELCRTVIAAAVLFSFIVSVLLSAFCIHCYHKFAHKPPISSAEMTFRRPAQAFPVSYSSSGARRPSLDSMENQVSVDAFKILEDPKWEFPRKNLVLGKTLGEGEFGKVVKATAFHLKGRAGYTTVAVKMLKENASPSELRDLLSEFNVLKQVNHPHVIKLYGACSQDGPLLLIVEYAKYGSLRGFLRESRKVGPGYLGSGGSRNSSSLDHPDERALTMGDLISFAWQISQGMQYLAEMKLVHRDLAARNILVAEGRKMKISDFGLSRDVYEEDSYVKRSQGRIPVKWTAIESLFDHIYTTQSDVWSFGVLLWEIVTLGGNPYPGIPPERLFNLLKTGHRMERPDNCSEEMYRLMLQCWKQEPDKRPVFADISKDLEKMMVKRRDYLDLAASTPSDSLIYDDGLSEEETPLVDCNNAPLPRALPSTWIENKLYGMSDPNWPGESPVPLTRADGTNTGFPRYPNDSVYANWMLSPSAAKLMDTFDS
UniProt Q9BRS2: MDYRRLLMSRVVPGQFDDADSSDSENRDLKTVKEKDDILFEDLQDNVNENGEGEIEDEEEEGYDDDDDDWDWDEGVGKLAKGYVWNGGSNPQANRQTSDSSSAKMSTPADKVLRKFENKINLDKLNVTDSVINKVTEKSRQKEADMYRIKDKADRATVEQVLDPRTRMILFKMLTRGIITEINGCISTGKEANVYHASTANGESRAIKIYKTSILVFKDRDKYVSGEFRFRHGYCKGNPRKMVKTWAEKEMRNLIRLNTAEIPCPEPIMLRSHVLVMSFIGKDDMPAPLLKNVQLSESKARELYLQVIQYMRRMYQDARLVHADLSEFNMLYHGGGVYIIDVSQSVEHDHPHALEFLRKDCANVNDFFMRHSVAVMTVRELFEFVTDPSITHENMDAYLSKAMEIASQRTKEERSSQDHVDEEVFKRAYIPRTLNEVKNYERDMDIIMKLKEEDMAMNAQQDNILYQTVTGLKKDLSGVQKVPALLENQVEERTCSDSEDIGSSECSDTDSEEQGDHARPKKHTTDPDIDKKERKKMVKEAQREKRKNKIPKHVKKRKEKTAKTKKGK
UniProt Q15418, whole entry: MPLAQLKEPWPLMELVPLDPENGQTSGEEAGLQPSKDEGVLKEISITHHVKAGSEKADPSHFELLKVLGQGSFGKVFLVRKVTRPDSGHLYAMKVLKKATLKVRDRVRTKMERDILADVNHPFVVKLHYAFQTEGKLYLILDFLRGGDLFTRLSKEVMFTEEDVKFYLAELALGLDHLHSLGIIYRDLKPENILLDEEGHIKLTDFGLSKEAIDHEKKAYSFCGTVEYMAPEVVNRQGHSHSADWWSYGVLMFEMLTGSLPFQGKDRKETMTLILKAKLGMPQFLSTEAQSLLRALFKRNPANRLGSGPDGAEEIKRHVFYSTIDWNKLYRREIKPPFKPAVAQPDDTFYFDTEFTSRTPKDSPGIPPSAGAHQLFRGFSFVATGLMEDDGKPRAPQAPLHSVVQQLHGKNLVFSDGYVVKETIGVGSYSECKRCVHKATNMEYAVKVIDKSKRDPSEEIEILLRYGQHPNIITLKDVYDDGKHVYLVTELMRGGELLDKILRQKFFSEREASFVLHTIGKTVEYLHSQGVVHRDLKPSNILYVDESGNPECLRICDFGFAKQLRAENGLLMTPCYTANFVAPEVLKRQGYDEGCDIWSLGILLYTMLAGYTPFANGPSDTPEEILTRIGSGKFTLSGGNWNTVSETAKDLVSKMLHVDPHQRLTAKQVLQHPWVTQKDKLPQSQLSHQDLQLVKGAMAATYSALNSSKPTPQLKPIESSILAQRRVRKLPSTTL
UniProt Q9NYA1, whole entry: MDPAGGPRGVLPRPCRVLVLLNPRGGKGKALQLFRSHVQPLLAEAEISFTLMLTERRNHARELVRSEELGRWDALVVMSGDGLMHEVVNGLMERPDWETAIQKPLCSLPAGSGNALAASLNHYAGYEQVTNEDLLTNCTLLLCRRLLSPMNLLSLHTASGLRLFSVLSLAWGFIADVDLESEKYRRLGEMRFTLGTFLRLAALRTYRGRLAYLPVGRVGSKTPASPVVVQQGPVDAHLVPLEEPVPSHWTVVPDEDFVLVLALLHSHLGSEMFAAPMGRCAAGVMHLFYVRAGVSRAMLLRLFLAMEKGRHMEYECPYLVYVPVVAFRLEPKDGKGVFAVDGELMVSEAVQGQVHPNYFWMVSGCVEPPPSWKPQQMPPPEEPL
UniProt Q9Y6E0: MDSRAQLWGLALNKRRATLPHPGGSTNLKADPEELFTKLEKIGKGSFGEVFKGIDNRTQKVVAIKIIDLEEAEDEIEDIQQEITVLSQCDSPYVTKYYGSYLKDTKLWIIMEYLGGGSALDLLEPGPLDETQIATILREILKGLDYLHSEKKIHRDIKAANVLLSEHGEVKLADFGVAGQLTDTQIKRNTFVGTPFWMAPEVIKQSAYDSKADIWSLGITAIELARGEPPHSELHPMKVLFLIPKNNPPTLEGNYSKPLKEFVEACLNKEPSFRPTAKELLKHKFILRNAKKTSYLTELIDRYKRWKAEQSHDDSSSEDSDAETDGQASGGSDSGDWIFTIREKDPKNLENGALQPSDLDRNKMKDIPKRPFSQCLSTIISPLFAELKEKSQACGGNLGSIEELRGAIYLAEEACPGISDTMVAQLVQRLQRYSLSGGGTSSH
UniProt Q15208: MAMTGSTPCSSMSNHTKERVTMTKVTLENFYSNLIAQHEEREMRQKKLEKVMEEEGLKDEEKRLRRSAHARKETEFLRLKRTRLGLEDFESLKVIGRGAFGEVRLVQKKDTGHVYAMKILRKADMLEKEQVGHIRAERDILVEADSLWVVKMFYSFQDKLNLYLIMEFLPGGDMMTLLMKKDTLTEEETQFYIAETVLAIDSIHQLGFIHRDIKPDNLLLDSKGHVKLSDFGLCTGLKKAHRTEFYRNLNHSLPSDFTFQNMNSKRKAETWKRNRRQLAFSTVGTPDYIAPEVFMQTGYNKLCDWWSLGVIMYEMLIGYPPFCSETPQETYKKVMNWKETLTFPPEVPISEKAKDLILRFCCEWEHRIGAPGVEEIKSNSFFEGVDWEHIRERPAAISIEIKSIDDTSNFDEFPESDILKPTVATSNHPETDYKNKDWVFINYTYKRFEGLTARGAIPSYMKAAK

Tests used:
Assay in all cases: number of time points (of 5) at which kinase-Nluc abundance scored as decreased, DMSO-normalised (count); higher = more persistent destabilization
Conditions in all cases: K562; 2-18 h
[1] = molecular target: PRKCA (UniProt P17252)
[2] = molecular target: PTK2 (UniProt Q05397)
[3] = molecular target: PTK2B (UniProt Q14289)
[4] = molecular target: RAF1 (UniProt P04049)
[5] = molecular target: RAF1_S257L (clone: RAF1_mut) (UniProt P04049)
[6] = molecular target: RET (UniProt P07949)
[7] = molecular target: RET_M918T (clone: RET_mut) (UniProt P07949)
[8] = molecular target: RIOK1 (UniProt Q9BRS2)
[9] = molecular target: RIPK1 (UniProt Q13546)
[10] = molecular target: RIPK2 (UniProt O43353)
[11] = molecular target: ROR2 (UniProt Q01974)
[12] = molecular target: RPS6KA1 (UniProt Q15418)
[13] = molecular target: SPHK1 (UniProt Q9NYA1)
[14] = molecular target: SRC (UniProt P12931)
[15] = molecular target: STK24 (UniProt Q9Y6E0)
[16] = molecular target: STK38 (UniProt Q15208)
[17] = molecular target: SYK (UniProt P43405)
[18] = molecular target: TEC (UniProt P42680)
[19] = molecular target: TYK2 (UniProt P29597)
[20] = molecular target: ULK3 (UniProt Q6PHR2)

Compound	number of time points [1]	number of time points [2]	number of time points [3]	number of time points [4]	number of time points [5]	number of time points [6]	number of time points [7]	number of time points [8]	number of time points [9]	number of time points [10]	number of time points [11]	number of time points [12]	number of time points [13]	number of time points [14]	number of time points [15]	number of time points [16]	number of time points [17]	number of time points [18]	number of time points [19]	number of time points [20]
Cc1ccn2c(C(=O)C(=O)c3ccccc3)c(-c3ccccc3)nc2c1 (10 µM)	0	0	0	0	0	0	0	0	0	0	0	0	0	0	0	0	0	0	0	0
Cc1cc(-c2ccnc(Nc3cnn(C)c3)n2)ccc1CNC(=O)N1CC(OC(C)C)C1 (10 µM)	0	0	0	0	0	0	0	0	0	0	0	0	0	0	0	0	0	0	0	0
NC1=NCCN1CC(=O)O [Cyclocreatine] (10 µM)	0	0	0	0	0	0	0	0	0	0	0	0	0	0	0	0	0	0	0	0
O=C1/C(=C\c2ccc(Cl)cc2)C=C(c2ccccc2)N1c1ccc(O)cc1 (2.5 µM)	0	0	0	0	0	0	0	0	0	0	0	0	0	0	0	0	0	0	0	0
COc1ccc2cc(-c3nc(-c4ccc([S+](C)[O-])cc4)[nH]c3-c3ccncc3)ccc2c1 (stereo not given) [Tie2 kinase inhibitor 1] (2.5 µM)	0	0	0	0	0	0	0	0	0	0	0	0	0	0	0	0	0	0	0	0
CCCNC(=O)Nc1ccc(Oc2ncnc3cc(OC)c(OC)cc23)cc1Cl (2.5 µM)	0	0	0	0	0	0	0	0	0	0	0	0	0	0	0	0	0	0	0	0
O=C(Nc1nc2ccc(NC(=O)C34CC5CC(CC(C5)C3)C4)cc2s1)c1ccccc1 (10 µM)	0	0	0	0	0	0	0	0	0	0	0	0	0	0	0	0	0	0	1	0
Cc1cc(Nc2ncnc3ccc(-c4ccc(CNCCS(C)(=O)=O)o4)cc23)ccc1Oc1ccn2ncnc2c1 [ARRY-380 (analog )] (2.5 µM)	0	0	0	0	0	0	0	0	0	0	0	0	0	0	0	0	0	0	0	0
N#CC(c1ccnc(OCc2ccc(CN3CCOCC3)cc2)n1)c1nc2ccccc2s1 (stereo not given) [Bentamapimod] (2.5 µM)	0	0	0	0	0	0	0	0	0	0	0	0	0	0	0	0	0	0	0	0
Cc1ccc(-c2csc3ncnc(SCCC(=O)O)c23)cc1 (10 µM)	0	0	0	0	0	0	0	0	0	0	0	0	0	0	0	0	0	0	0	0
CCCCCCCCCCCCCCCCOP(=O)([O-])OCC[N+](C)(C)C [Miltefosine] (10 µM)	0	0	0	0	0	0	0	0	0	0	0	0	0	0	0	0	0	0	0	0
CCN(CC)CCC(=O)N1N=C(c2c(-c3ccccc3)c3cc(Br)ccc3[nH]c2=O)CC1c1ccc(Br)cc1 (stereo not given) (2.5 µM)	0	1	0	0	0	0	1	0	0	0	0	0	0	0	0	0	0	0	0	0
Cn1cc(C2=C(c3cn(CCCSC(=N)N)c4ccccc34)C(=O)NC2=O)c2ccccc21 [Ro 31-8220 (mesylate)] (2.5 µM)	0	0	0	0	3	0	0	0	2	0	0	0	0	0	0	0	0	0	0	0
N#Cc1c2nc3ccccc3nc2n2ccc(NC(=O)c3cccs3)cc12 (10 µM)	0	0	0	0	0	0	0	0	0	0	0	0	0	0	0	0	0	0	0	0
O=C(N[C@@H](C1CC1)C(F)(F)F)c1cc(-c2cnn3cc(-c4ccc(F)cc4)cnc23)cs1 (10 µM)	0	0	0	0	0	0	0	0	0	3	0	0	0	0	0	0	0	0	0	0
CC(C)c1cccc(C(C)C)c1N1C(=O)c2ccc(N)cc2C1=O (2.5 µM)	0	0	0	0	0	0	0	0	0	0	0	0	0	0	0	0	0	0	0	0
C=CC(=O)Nc1cc(-n2c(=O)ccc3cnc4ccc(-c5ccc(NS(C)(=O)=O)cc5)cc4c32)ccc1C (10 µM)	0	0	0	0	0	0	0	0	0	0	0	0	0	0	0	0	0	0	4	0
Nc1ncnc2c1c(-c1ccc(Oc3ccccc3)cc1)nn2C1CCN(CCOCCOCCOc2ccc3c(c2)CN(C2CCC(=O)NC2=O)C3=O)CC1 (stereo not given) (2.5 µM)	0	0	0	0	0	0	0	0	0	0	0	0	0	0	0	0	0	4	0	0
CNc1nc(Nc2cn(C(C)(C)C#N)nc2C)ncc1C(F)(F)F (10 µM)	0	0	0	0	0	0	0	0	0	0	0	0	0	0	0	0	0	0	0	0
COc1nn(C)cc1Nc1nccc(-c2c[nH]c3c(NC(=O)[C@@H](C)N4CCN(C)CC4)cccc23)n1 (10 µM)	0	0	0	0	0	0	0	0	0	0	0	0	0	0	0	0	0	0	0	0
NC(=O)c1cnc2[nH]ccc2c1N[C@@H]1[C@@H]2CC3C[C@H]1C[C@@](O)(C3)C2 [Peficitinib] (10 µM)	0	1	0	2	3	0	1	1	3	3	0	0	0	0	0	1	0	3	4	0
CCN(CC)c1cc2oc(=O)c(-c3nc4ccccc4o3)cc2cc1C (2.5 µM)	0	0	0	0	0	0	0	0	0	0	0	0	1	0	0	0	0	0	0	0
Cc1ccc(NC(=O)c2ccc(CN(CCN(C)C)C(=O)c3cccnc3)cc2)cc1Nc1nccc(-c2cccnc2)n1 [PDGFRα kinase inhibitor 1] (10 µM)	0	0	0	0	0	0	0	0	0	0	0	0	0	0	0	0	0	0	0	0
CC(C)N1CCN(c2ccc(Nc3ncc4cc5n(c4n3)C3(CCCCC3)CNC5=O)nc2)CC1 [Lerociclib (dihydrochloride)] (2 µM)	0	0	0	0	1	0	0	2	1	0	0	0	0	0	0	0	0	0	2	0

Retrieved by structure from above:
Compound	number of time points [1]	number of time points [2]	number of time points [3]	number of time points [4]	number of time points [5]	number of time points [6]	number of time points [7]	number of time points [8]	number of time points [9]	number of time points [10]	number of time points [11]	number of time points [12]	number of time points [13]	number of time points [14]	number of time points [15]	number of time points [16]	number of time points [17]	number of time points [18]	number of time points [19]	number of time points [20]
NC(=O)c1cnc2[nH]ccc2c1N[C@@H]1[C@@H]2CC3C[C@H]1C[C@@](O)(C3)C2 [Peficitinib] (10 µM)	0	1	0	2	3	0	1	1	3	3	0	0	0	0	0	1	0	3	4	0
CC(C)N1CCN(c2ccc(Nc3ncc4cc5n(c4n3)C3(CCCCC3)CNC5=O)nc2)CC1 [Lerociclib (dihydrochloride)] (2 µM)	0	0	0	0	1	0	0	2	1	0	0	0	0	0	0	0	0	0	2	0
